Results are given in words; binding and its absence hold for the method and conditions named. Some binding calls cover weakened binding; strength is not graded here. For some of these results: Sequences can lack the tags named with a protein.
What was measured:
[1] = biological target: T1, ErbB-3 receptor-Ig fusion (human, UniProt P21860 20-643); assay: phage ELISA
T1 construct: extracellular domain;range 224-C-terminus; also called ErbB-3-Ig; 3/3 homodimer; not shown: human IgG heavy chain constant region from His224 (hinge) on

[2] = biological target: T1, ErbB-3 receptor-Ig fusion; assay: phage ELISA; ratio to wild-type HRG8 phage
[3] = biological target: T2, ErbB-4 receptor-Ig fusion (human, UniProt Q15303 26-651); assay: phage ELISA
T2 construct: extracellular domain;range 224-C-terminus; also called ErbB-4-Ig; not shown: human IgG heavy chain constant region from His224 (hinge) on
T2 sequence: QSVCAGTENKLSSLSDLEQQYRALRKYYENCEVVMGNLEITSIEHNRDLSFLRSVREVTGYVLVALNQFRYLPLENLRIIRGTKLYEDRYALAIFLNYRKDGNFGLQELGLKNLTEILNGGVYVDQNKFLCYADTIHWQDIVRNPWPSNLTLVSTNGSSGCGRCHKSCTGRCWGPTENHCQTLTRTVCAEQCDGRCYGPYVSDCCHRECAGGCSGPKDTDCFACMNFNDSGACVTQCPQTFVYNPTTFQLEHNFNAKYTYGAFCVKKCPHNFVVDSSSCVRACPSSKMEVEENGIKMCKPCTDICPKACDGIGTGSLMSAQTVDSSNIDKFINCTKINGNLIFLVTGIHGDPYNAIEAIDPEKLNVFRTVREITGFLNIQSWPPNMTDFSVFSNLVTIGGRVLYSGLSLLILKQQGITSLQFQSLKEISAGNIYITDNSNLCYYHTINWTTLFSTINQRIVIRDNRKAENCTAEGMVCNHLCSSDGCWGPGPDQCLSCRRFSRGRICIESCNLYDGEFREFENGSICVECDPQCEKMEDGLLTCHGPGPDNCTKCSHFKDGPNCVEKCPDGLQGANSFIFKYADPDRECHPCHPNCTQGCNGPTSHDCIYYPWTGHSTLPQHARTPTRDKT

B1: Library A variant A1 of HRG-β1 EGF on phage (ligand, not shown: large carriers; small tags and cut ends)
chain: WRLVPCAEKEKTFCVNGGECFMVKDLSNPSRYLCKCPNEFTGDRCQNYVMAS
binding [1]: binds

B2: Library A variant A2 of HRG-β1 EGF on phage (ligand, not shown: large carriers; small tags and cut ends)
chain: WSLQPCAEKEKTFCVNGGECFMVKDLSNPSRYLCKCPNEFTGDRCQNYVMAS
binding [1]: binds

B3: Library A variant A4 of HRG-β1 EGF on phage (ligand, not shown: large carriers; small tags and cut ends)
chain: WSLVKCAEKEKTFCVNGGECFMVKDLSNPSRYLCKCPNEFTGDRCQNYVMAS
binding [2]: no binding (tested: EC50 (wt)/EC50 (mut) below 0.3)

B4: Library D variant D4 of HRG-β1 EGF on phage (ligand, not shown: large carriers; small tags and cut ends)
chain: SHLVKCAEKEKTFCVNGGECYRVKTLSNPSRYLCKCPNEFTGDRCQNYVMAS
binding [3]: binds

B5: Library I variant I2 of HRG-β1 EGF on phage (ligand, not shown: large carriers; small tags and cut ends)
chain: SHLVKCAEKEKTFCVNGGECFMVKDLSNPSRYLCKCPNEFTGDRCQHYVIAS
binding [3]: binds

B6: Library I variant I1 of HRG-β1 EGF on phage (ligand, not shown: large carriers; small tags and cut ends)
chain: SHLVKCAEKEKTFCVNGGECFMVKDLSNPSRYLCKCPNEFTGDRCQWYVIAS
binding [3]: binds

B7: HRG-β1 177-244 H178L on phage (ligand, not shown: large carriers; small tags and cut ends)
chain: SLLVKCAEKEKTFCVNGGECFMVKDLSNPSRYLCKCPNEFTGDRCQNYVMASFYKHLGIEFMEAEELY
binding [1]: binds

From patent US20060183194A1 (Genentech, published 2006)
